# Laboratory results taken from PubChem BioAssay (NCATS).
# The shares of active, inactive and inconclusive entries below differ from those in the screen. Potencies beside an inconclusive call are fits to weak or partial responses and may not hold up. Activity calls are given as the source filed them. Calls come from the whole dose curve; as a rule, active = well fitted cell-killing curve with a large enough effect; inconclusive = small, poorly fitted or top-dose-only effect, or effect the other way; inactive = no such curve, though single readings can be large or run the other way.
# Assays:
# [1] = Quantitative High-Throughput drug screen in 47 multiple myeloma cell lines against the NCATS MIPE library collection: KMS12PE_JCRB cell viability assay (AID 1918972); conditions: KMS12PE myeloma viability, CellTiter-Glo ATP, 48 h; viability: at 45.8 µM (top of the series); note: nearly all actives have a fitted effect of over 30% in size
# In short: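 We plated 500 myeloma cells per well, pinned in MIPE 4.0 compounds, and incubated for 48 hours at 37C. ATP was then quantified with CellTiter-Glo, with DMSO and media-only wells defining 100% and 0%.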
# [2] = Quantitative High-Throughput drug screen in 47 multiple myeloma cell lines against the NCATS MIPE library collection: KMS20_JCRB cell viability assay (AID 1918973); conditions: CellTiter-Glo ATP, 48 h; viability (% of DMSO): at 45.8 µM (top of the series); note: nearly all actives have a fitted effect of over 45% in size
# In short: (§1)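 qHTS of the MIPE 4.0 collection: 500 myeloma cells/well, 48 h drug exposure at 37C in 5% CO2, then CellTiter-Glo for 5 min at room temperature before luminescence reading.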
# [3] = Quantitative High-Throughput drug screen in 47 multiple myeloma cell lines against the NCATS MIPE library collection: KMS12BM_JCRB cell viability assay (AID 1918971); note: nearly all actives have a fitted effect of over 35% in size
# In short: (§2)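 Viability readout: CellTiter-Glo luminescence following 5 min room-temperature incubation with reagent. Prior exposure: 48 h, 37C, humidified 5% CO2, 500 cells per well.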
# [4] = Quantitative High-Throughput drug screen in 47 multiple myeloma cell lines against the NCATS MIPE library collection: KMS21BM_JCRB cell viability assay (AID 1918974); conditions: ATP luminescence, 48 h; viability: at 45.8 µM (top of the series) unless noted
# In short: as §1
# [5] = Quantitative High-Throughput drug screen in 47 multiple myeloma cell lines against the NCATS MIPE library collection: KMS26_JCRB cell viability assay (AID 1918975); conditions: KMS26 myeloma cells viability, CellTiter-Glo ATP, 48 h; viability (% of DMSO): at 45.8 µM (top of the series); note: nearly all actives have a fitted effect of over 45% in size
# In short: as §2
# [6] = Quantitative High-Throughput drug screen in 47 multiple myeloma cell lines against the NCATS MIPE library collection: MMM1_PLB cell viability assay (AID 1918976); note: nearly all actives have a fitted effect of over 35% in size
# In short: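 Plated at 500 cells per well, myeloma lines received MIPE 4.0 compounds by pin tool. Following 48 h culture at 37 °C, CellTiter-Glo luminescence gave viability relative to DMSO and media-only controls.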
# [7] = Quantitative High-Throughput drug screen in 47 multiple myeloma cell lines against the NCATS MIPE library collection: KMS27_JCRB cell viability assay (AID 1918970); conditions: KMS27 myeloma cells, CellTiter-Glo ATP viability, 48 h; viability (% of DMSO): at 45.8 µM (top of the series) unless noted; note: nearly all actives have a fitted effect of over 30% in size
# In short: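 Viability inhibition screen, 48 h compound exposure, luminescent ATP read-out.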
# Potency is the fitted concentration of half-maximal effect.
smiles,measurement,setting,value
C=Cc1c(C)c2cc3nc(cc4[nH]c(cc5nc(cc1[nH]2)C(C)=C5CCC(=O)O)c(CCC(=O)OC)c4C)[C@@]1(C)C3=CC=C(C(=O)OC)[C@H]1C(=O)OC,Potency,[1],active: 0.187 µM
same,Potency,[2],active: 0.148 µM
Nc1ncnc2c1ncn2[C@@H]1O[C@H](CO)[C@@H](O)[C@@H]1O,Potency,[3],"inconclusive: 37.2 µM [cytotoxic, single point]"
same,Potency,[2],"inconclusive: 1.32 µM [cytotoxic, full curve, poor fit]"
same,Potency,[4],active: 0.209 µM
same,Potency,[5],active: 16.6 µM
same,Potency,[6],"inconclusive: 26.4 µM [cytotoxic, single point]"
Cc1c(-c2cccc3c(CCCOc4cccc5ccccc45)c(C(=O)O)n(Cc4cccnc4)c23)c(COc2ccc(N3CCN([S+](=O)([O-])N(C)C)CC3)cc2)nn1C,Potency,[4],"inconclusive: 11.8 µM [rising, full curve]"
same,Potency,[5],"inconclusive: 10.5 µM [cytotoxic, partial curve, poor fit]"
same,Potency,[6],"inconclusive: 26.4 µM [cytotoxic, single point]"
CN1CCC(COc2cnc(-c3cccc(Cn4nc(-c5cccc(C#N)c5)ccc4=O)c3)nc2)CC1,Potency,[7],"inconclusive: 0.0059 µM [cytotoxic, full curve, poor fit]"
same,Potency,[1],"inconclusive: 2.35 µM [cytotoxic, partial curve, poor fit]"
same,Potency,[5],active: 0.235 µM
CC(N[C@H]1CCCC[C@H]1NC(=O)c1ccc(Cl)cc1)c1cccc2ccccc12 (stereo partly specified),Potency,[3],"inconclusive: 33.2 µM [cytotoxic, single point]"
same,Potency,[1],"inconclusive: 0.264 µM [cytotoxic, full curve, poor fit]"
same,Potency,[4],"inconclusive: 0.264 µM [cytotoxic, full curve, poor fit]"
same,Potency,[6],"inconclusive: 0.0074 µM [rising, full curve]"
c1ccc(CNc2nc(NCc3ccccc3)c3ccccc3n2)cc1,Potency,[7],active: 5.9 µM
same,Potency,[4],"inconclusive: 3.72 µM [cytotoxic, full curve, poor fit]"
same,Potency,[6],active: 16.6 µM
Cc1ccc(C(N)=O)cc1Nc1nccc(-c2cn(C(C)C)c3cnccc23)n1,Potency,[7],active: 3.32 µM
same,Potency,[1],active: 5.9 µM
same,Potency,[2],active: 4.18 µM
same,Potency,[4],active: 0.935 µM
same,Potency,[6],active: 16.6 µM
Nc1ncn([C@@H]2O[C@H](CO)[C@@H](O)[C@@H]2O)c(=O)n1,Potency,[7],active: 9.35 µM
same,Potency,[1],active: 1.32 µM
same,Potency,[2],"inconclusive: 10.5 µM [cytotoxic, partial curve, poor fit]"
same,Potency,[4],active: 1.87 µM
same,Potency,[6],"inconclusive: 10.5 µM [cytotoxic, partial curve, poor fit]"
C[C@]12C=CC(=O)N[C@@H]1CC[C@H]1[C@H]3CC[C@@H](C(=O)Nc4cc(C(F)(F)F)ccc4C(F)(F)F)[C@@]3(C)CC[C@@H]12,Potency,[7],inactive
same,Potency,[4],"inconclusive: 37.2 µM [rising, partial curve]"
same,Potency,[5],"inconclusive: 18.7 µM [cytotoxic, partial curve, poor fit]"
same,Potency,[6],"inconclusive: 18.7 µM [cytotoxic, partial curve, poor fit]"
CC(C)C[C@H](NC(=O)[C@H](Cc1ccccc1)NC(=O)c1cnccn1)B(O)O,Potency,[7],"inconclusive: 0.0132 µM [cytotoxic, full curve, poor fit]"
same,Potency,[1],"inconclusive: 0.0083 µM [cytotoxic, full curve, poor fit]"
C#Cc1cccc(Nc2ncnc3cc(OC)c(OCCCCCCC(=O)NO)cc23)c1,Potency,[3],active: 0.0662 µM
same,Potency,[4],"inconclusive: 33.2 µM [rising, partial curve, poor fit]"
same,Potency,[5],active: 0.105 µM
CC(=O)[C@]1(O)Cc2c(O)c3c(c(O)c2[C@@H](O[C@H]2C[C@H](N)[C@@H](O)[C@H](C)O2)C1)C(=O)c1ccccc1C3=O,Potency,[2],active: 0.105 µM
same,Potency,[4],"inconclusive: 37.2 µM [rising, partial curve, poor fit]"
CC(C)(C)NC(=O)[C@H]1CC[C@H]2[C@@H]3CC[C@H]4NC(=O)C=C[C@]4(C)[C@H]3CC[C@]12C,Potency,[3],inactive
same,Potency,[1],active: 20.9 µM
same,Potency,[5],active: 2.96 µM
same,Potency,[6],inactive
Nc1nc(Nc2ccc(S(N)(=O)=O)cc2)nn1C(=O)c1c(F)cccc1F,Potency,[4],"inconclusive: 37.2 µM [rising, partial curve, poor fit]"
same,Potency,[5],active: 7.43 µM
O=C(CCCCCCNC(=O)c1cnc(N(c2ccccc2)c2ccccc2)nc1)NO,Potency,[2],active: 8.33 µM
same,Potency,[4],"inconclusive: 29.6 µM [rising, partial curve, poor fit]"
Nc1ccc(C(=O)Nc2cccc(-c3nc(N4CCOCC4)c4oc5ncccc5c4n3)c2)cn1,Potency,[4],active: 10.5 µM
CC(C)(O)Cn1c(NC(=O)c2ccc(-c3cn[nH]c3)s2)nc2cc(CN3CCOCC3)ccc21,Potency,[2],active: 2.96 µM
same,Potency,[4],"inconclusive: 33.2 µM [rising, partial curve, poor fit]"
same,Potency,[6],active: 2.09 µM
COc1c(C)c2c(c(O)c1CC=C(C)CCC(=O)O)C(=O)OC2,Potency,[2],"inconclusive: 0.0053 µM [cytotoxic, full curve, poor fit]"
same,Potency,[5],"inconclusive: 0.0662 µM [cytotoxic, full curve, poor fit]"
CCc1cccc(CC)c1NC(=O)N1Cc2[nH]nc(NC(=O)c3ccc(N4CCN(C)CC4)cc3)c2C1,Potency,[7],"inconclusive: 16.6 µM [cytotoxic, partial curve]"
same,Potency,[1],"inconclusive: 13.2 µM [cytotoxic, partial curve, poor fit]"
same,Potency,[2],active: 14.8 µM
same,Potency,[4],active: 3.72 µM
same,Potency,[5],"inconclusive: 5.9 µM [cytotoxic, partial curve, poor fit]"
same,Potency,[6],inactive
COc1cc(N2CCC(C(N)=O)CC2)ccc1Nc1nc(N)c(Cl)c(Nc2ccccc2S(=O)(=O)C(C)C)n1,Potency,[7],active: 0.264 µM
same,Potency,[1],"inconclusive: 0.118 µM [cytotoxic, full curve]"
same,Potency,[2],active: 0.001 µM
same,Potency,[4],"inconclusive: 0.0526 µM [cytotoxic, full curve, poor fit]"
same,Potency,[5],active: 1.87 µM
COc1cc(C=CC(=O)CC(=O)C=Cc2ccc(O)c(OC)c2)ccc1O,Potency,[3],active: 19.1 µM
same,Potency,[4],"inconclusive: 3.82 µM [cytotoxic, full curve, poor fit]"
same,Potency,[6],active: 38.2 µM
CC(C)C[C@H](NC(=O)CNC(=O)c1cc(Cl)ccc1Cl)B1OC(=O)CC(CC(=O)O)(C(=O)O)O1 (stereo partly specified),Potency,[3],active: 0.0833 µM
same,Potency,[5],active: 0.0935 µM
COc1cccc2c(NCc3ccccc3)nc(-n3c(N)nc4ccccc43)nc12,Potency,[4],"inconclusive: 4.18 µM [cytotoxic, full curve, poor fit]"
same,Potency,[6],active: 5.9 µM
Fc1cc(-c2cccc3ncc(-c4cnn(C5CCNCC5)c4)nc23)cc(F)c1CN1CCOCC1,Potency,[3],active: 18.7 µM
same,Potency,[4],"inconclusive: 26.4 µM [rising, partial curve, poor fit]"
same,Potency,[5],active: 26.4 µM
CC(C)c1nn(-c2c(Cl)cccc2Cl)c2nc(Cc3ccc(OCCO)cc3)[nH]c(=O)c12,Potency,[7],inactive
same,Potency,[4],inactive
same,Potency,[6],active: 0.148 µM
CCOC(=O)N1CCN([N+]([O-])=NOc2ccc([N+](=O)[O-])cc2C#N)CC1,Potency,[4],"inconclusive: 0.469 µM [cytotoxic, full curve, poor fit]"
COc1ccc(-c2cc3c(C)nc(N)nc3n(C3CCC(OCCO)CC3)c2=O)cn1 (stereo unspecified),Potency,[4],"inconclusive: 0.132 µM [cytotoxic, full curve, poor fit]"
same,Potency,[5],active: 0.148 µM
CCOC(=O)N1CCN([N+]([O-])=NOc2cc(ON=[N+]([O-])N3CCN(C(=O)OCC)CC3)c([N+](=O)[O-])cc2[N+](=O)[O-])CC1,Potency,[7],"inconclusive: 33.2 µM [cytotoxic, single point]"
same,Potency,[1],inactive
same,Potency,[5],active: 2.35 µM
CC(=O)N1CCN(c2ccc(OCc3nn(C)c(C)c3-c3cccc4c(CCCOc5cccc6ccccc56)c(C(=O)O)n(Cc5cccnc5)c34)cc2)CC1,Potency,[3],"inconclusive: 0.0743 µM [cytotoxic, full curve, poor fit]"
same,Potency,[2],active: 0.0526 µM
same,Potency,[6],"inconclusive: 11.8 µM [cytotoxic, partial curve, poor fit]"
CC1(C)C(N(O)C(=O)Nc2ccc(Cl)cc2)N(c2ccc(Cl)cc2)C(=O)N1CC(=O)NN=CC=Cc1ccc([N+](=O)[O-])o1 (stereo unspecified),Potency,[2],"inconclusive: 10.5 µM [cytotoxic, partial curve, poor fit]"
same,Potency,[4],"inconclusive: 33.2 µM [rising, single point]"
same,Potency,[5],active: 8.33 µM
same,Potency,[6],active: 14.8 µM
CO[C@@H]1[C@@H](O)[C@H](O)[C@@H](n2c3c(Cl)cccc3c3c4c(c5c6cccc(Cl)c6[nH]c5c32)C(=O)NC4=O)O[C@@H]1CO,Potency,[2],"inconclusive: 0.935 µM [cytotoxic, partial curve, poor fit]"
same,Potency,[4],"inconclusive: 33.2 µM [rising, partial curve, poor fit]"
same,Potency,[6],active: 5.9 µM
Oc1c(Cl)cc(Cl)c2cccnc12,Potency,[7],active: 16.6 µM
same,Potency,[4],"inconclusive: 16.6 µM [cytotoxic, partial curve, poor fit]"
CCC(C)(C)C(=O)O[C@H]1C[C@@H](C)C=C2C=C[C@H](C)[C@H](CC[C@@H]3C[C@@H](O)CC(=O)O3)[C@H]21,Potency,[3],"inconclusive: 0.0017 µM [rising, full curve]"
same,Potency,[2],"inconclusive: 33.2 µM [cytotoxic, partial curve, poor fit]"
same,Potency,[5],"inconclusive: 33.2 µM [cytotoxic, single point]"
same,Potency,[6],"inconclusive: 0.003 µM [rising, full curve]"
CCCc1nc(C)c2c(=O)[nH]c(-c3cc(S(=O)(=O)N4CCN(CC)CC4)ccc3OCC)nn12,Potency,[7],active: 4.69 µM
same,Potency,[4],active: 3.72 µM
same,Potency,[5],active: 4.69 µM
C1CCC(C(CC2CCCCN2)C2CCCCC2)CC1 (stereo unspecified),Potency,[1],active: 8.33 µM
same,Potency,[4],active: 11.8 µM

# Part of the list above, bar-delimited.
smiles | measurement | setting | value
CO[C@@H]1[C@@H](O)[C@H](O)[C@@H](n2c3c(Cl)cccc3c3c4c(c5c6cccc(Cl)c6[nH]c5c32)C(=O)NC4=O)O[C@@H]1CO | Potency | [4] | inconclusive: 33.2 µM [rising, partial curve, poor fit]
same | Potency | [6] | active: 5.9 µM
Oc1c(Cl)cc(Cl)c2cccnc12 | Potency | [7] | active: 16.6 µM
same | Potency | [4] | inconclusive: 16.6 µM [cytotoxic, partial curve, poor fit]
